The list shows a part of the results.
Columns and labels:
Assay in all cases: log2 fold change, soluble protein after heating vs DMSO (PISA); higher = thermal stabilisation; K562 lysate, 10 uM; active = over 0.2 and 3.5 SD of the protein, either way, in both replicates (recomputed)
[1] = compound: C#Cc1cccc(Nc2ncnc3cc(OCCOC)c(OCCOC)cc23)c1 [erlotinib]
Procedure, shortened: (§1)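 Log-two fold change in thermal stability relative to solvent controls is reported from duplicates. For each sample, crude K562 extract from dounce-homogenised pellets in PBS pH 7.4 with 1 mM MgCl2, at 1 mg/mL protein, was treated with 10 μM compound for 30 min. Aliquots heated for 3 min across 48°C-58°C were pooled, brought to 0.5% NP-40 at 4°C and cleared at 21,000xg for 90 min. The supernatant was quantified by TMTpro 16plex LC-MS/MS with channel sums equalised.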

The chains behind the UniProt entries cited, without tags or fusion partners. Where a name states a change or a piece, a line headed by the entry shows the natural chain unless it says otherwise.
UniProt Q9UJT1: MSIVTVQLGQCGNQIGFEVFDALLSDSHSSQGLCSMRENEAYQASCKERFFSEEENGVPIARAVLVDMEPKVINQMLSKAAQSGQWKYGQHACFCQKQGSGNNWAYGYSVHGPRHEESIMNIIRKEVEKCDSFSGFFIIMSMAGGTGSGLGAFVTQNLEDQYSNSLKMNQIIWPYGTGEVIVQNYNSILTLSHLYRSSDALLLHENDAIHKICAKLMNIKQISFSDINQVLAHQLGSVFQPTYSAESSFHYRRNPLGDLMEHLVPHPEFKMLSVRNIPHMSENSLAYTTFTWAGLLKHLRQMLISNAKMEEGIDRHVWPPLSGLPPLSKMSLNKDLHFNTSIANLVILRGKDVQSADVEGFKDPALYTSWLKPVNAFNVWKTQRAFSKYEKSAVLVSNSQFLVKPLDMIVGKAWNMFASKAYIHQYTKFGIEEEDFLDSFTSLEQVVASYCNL
UniProt Q9UJT0: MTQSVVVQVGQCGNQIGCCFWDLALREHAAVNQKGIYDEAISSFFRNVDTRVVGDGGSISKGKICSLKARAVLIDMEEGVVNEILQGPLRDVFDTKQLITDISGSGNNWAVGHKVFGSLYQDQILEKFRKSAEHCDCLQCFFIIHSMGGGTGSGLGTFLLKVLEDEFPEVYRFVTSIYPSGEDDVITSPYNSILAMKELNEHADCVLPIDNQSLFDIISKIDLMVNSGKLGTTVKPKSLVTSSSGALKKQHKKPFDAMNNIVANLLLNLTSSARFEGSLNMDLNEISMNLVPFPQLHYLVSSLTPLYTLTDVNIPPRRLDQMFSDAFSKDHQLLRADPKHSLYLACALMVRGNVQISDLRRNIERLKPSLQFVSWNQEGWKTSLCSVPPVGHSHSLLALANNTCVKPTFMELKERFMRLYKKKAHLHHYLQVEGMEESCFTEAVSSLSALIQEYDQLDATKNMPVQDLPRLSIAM
UniProt Q8IWV7: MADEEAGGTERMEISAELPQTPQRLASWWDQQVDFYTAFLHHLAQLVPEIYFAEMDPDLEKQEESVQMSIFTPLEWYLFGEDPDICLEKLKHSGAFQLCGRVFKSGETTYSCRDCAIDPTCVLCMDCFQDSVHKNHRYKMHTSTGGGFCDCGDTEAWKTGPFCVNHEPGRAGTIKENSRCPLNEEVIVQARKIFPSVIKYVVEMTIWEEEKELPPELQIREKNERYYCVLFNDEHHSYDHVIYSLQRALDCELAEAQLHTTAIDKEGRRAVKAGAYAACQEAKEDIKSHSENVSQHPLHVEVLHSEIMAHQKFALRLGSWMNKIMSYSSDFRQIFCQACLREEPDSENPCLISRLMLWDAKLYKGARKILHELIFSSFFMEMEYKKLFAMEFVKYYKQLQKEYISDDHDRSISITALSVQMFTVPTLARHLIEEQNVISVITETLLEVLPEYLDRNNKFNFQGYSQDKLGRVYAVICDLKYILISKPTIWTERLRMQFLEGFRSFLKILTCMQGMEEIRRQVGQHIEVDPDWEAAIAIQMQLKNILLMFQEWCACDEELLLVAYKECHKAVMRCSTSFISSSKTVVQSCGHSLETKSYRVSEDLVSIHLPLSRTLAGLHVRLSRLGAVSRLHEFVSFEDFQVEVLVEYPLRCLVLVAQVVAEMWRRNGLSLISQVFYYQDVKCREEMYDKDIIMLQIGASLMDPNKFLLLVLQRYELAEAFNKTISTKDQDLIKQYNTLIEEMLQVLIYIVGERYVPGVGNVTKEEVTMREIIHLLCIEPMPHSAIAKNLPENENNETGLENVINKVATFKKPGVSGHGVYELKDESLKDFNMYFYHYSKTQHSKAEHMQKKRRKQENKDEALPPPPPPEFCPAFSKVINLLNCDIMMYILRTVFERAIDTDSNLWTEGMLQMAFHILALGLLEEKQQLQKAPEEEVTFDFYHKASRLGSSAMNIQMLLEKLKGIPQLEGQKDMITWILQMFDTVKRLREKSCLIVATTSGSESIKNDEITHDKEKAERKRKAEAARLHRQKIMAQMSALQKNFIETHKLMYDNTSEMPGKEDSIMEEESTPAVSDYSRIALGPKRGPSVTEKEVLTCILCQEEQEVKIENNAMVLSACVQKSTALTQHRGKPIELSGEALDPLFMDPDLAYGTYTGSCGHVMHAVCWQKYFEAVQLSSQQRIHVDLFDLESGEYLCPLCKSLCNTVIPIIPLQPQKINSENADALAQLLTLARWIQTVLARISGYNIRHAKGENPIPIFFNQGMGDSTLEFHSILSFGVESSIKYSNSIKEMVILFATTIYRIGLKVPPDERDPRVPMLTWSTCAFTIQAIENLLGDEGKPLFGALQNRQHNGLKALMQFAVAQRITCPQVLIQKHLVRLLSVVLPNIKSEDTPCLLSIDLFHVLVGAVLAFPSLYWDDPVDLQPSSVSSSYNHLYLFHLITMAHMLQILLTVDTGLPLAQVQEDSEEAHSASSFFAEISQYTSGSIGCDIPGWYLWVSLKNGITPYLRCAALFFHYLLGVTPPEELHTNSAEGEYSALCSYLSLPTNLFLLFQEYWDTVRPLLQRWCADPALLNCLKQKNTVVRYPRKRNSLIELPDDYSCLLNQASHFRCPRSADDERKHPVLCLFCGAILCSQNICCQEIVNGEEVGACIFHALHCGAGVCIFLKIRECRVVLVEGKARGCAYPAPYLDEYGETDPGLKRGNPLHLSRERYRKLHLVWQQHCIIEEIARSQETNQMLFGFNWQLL
UniProt Q92575: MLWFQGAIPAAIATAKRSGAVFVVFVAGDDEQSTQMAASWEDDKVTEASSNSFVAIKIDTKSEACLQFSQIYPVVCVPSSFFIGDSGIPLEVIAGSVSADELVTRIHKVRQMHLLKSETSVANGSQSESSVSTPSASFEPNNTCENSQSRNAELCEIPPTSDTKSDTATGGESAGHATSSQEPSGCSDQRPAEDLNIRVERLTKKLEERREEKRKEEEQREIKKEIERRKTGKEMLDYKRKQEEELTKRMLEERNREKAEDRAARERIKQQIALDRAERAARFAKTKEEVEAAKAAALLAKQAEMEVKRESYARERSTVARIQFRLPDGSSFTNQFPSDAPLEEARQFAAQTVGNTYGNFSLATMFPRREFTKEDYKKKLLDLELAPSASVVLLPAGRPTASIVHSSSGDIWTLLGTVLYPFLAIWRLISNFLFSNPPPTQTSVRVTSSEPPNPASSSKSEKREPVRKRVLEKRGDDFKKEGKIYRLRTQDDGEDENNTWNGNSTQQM
UniProt P11441: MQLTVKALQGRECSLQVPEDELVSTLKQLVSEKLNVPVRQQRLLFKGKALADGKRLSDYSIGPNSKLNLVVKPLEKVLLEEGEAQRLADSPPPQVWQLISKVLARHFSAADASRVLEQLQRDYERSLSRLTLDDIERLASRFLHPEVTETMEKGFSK
UniProt Q9UBT2: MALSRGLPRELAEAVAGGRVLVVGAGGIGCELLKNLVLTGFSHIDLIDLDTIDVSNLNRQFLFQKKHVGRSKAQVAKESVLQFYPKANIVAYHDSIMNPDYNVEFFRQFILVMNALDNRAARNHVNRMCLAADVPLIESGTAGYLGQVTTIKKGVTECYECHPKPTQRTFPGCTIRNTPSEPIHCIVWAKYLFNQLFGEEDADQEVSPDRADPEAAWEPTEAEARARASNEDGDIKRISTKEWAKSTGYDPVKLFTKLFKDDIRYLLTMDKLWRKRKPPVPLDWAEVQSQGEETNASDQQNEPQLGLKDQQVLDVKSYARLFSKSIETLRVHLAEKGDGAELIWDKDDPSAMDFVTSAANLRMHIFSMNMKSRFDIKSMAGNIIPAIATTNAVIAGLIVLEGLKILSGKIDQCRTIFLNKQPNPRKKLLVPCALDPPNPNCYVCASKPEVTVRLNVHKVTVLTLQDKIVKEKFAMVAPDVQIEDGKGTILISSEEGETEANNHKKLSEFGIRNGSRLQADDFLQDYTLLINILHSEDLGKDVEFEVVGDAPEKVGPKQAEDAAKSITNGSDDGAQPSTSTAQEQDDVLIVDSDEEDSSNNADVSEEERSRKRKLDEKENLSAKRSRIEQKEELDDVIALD
UniProt Q01081: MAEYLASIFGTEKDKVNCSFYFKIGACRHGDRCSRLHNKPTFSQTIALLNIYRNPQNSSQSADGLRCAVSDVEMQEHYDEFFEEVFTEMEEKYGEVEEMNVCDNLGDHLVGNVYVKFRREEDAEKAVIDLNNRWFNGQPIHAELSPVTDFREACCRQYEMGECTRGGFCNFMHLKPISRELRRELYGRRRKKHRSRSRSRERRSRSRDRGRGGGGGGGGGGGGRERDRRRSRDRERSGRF
UniProt P62253: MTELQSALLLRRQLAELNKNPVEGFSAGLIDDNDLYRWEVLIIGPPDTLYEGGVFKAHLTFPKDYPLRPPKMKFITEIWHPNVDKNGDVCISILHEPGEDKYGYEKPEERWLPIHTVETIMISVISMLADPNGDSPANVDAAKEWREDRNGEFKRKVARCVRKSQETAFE
UniProt Q7Z6J8: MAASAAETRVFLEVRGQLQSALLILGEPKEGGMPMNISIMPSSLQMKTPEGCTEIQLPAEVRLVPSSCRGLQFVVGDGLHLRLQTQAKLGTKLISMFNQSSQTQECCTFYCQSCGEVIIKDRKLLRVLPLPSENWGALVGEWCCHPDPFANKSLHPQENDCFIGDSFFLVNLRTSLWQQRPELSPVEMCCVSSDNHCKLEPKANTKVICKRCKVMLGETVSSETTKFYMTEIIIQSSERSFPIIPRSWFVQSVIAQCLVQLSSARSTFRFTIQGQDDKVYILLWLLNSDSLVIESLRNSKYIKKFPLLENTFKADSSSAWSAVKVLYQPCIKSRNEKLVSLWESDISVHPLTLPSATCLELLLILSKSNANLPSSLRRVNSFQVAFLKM
UniProt Q9C0C9: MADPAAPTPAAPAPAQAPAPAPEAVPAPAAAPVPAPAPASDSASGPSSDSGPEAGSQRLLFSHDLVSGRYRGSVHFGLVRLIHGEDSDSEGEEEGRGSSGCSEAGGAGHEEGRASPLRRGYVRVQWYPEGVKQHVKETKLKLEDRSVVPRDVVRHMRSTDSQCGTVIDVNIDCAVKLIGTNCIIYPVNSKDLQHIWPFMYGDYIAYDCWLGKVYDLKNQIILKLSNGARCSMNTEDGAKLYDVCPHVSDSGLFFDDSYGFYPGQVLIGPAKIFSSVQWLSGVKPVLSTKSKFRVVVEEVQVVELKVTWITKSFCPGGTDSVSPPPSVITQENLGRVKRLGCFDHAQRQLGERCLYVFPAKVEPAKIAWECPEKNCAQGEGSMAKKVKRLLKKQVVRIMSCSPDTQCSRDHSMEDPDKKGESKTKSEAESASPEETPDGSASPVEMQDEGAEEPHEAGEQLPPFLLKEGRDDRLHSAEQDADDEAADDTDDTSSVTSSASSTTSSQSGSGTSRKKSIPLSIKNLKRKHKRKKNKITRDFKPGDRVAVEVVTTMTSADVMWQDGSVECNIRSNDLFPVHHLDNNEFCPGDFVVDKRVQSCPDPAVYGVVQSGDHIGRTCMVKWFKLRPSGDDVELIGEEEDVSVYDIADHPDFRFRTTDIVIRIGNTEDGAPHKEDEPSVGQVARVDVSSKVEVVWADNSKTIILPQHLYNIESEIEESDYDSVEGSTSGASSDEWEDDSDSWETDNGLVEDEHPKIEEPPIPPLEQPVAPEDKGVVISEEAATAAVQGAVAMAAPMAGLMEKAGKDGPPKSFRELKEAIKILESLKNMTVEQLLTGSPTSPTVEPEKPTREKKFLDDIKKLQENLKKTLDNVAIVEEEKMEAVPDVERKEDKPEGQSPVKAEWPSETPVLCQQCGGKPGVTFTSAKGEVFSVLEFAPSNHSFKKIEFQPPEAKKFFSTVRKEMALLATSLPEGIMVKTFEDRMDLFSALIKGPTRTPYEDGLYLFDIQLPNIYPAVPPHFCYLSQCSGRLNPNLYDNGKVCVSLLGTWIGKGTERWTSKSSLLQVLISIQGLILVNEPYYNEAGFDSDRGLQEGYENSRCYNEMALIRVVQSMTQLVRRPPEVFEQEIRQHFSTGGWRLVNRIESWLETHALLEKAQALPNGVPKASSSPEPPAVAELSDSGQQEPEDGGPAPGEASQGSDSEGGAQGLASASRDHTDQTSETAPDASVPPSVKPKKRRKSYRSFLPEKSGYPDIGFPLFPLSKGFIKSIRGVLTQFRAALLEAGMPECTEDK
UniProt Q13454: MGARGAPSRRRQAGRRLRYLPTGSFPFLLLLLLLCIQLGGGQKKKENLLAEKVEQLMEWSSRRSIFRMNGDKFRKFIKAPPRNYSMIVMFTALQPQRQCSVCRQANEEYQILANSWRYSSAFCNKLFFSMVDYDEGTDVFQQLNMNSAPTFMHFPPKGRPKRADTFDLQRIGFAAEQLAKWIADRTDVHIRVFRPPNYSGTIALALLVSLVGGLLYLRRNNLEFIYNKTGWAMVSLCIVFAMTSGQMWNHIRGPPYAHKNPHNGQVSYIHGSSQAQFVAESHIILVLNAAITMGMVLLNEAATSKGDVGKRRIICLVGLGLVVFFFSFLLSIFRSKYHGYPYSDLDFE

[2] = compound: C/C(=N\NC(=O)C1=CC(=CC=C1)S(=O)(=O)N2CCOCC2)/C3=C(C=CC(=C3)Cl)O
Procedure, shortened: as §1

[3] = compound: C1=CC(=CC=C1C2=NC3=C(N2)C=C(C=C3)C(=O)N)OC4=CC=C(C=C4)Cl
Procedure, shortened: as §1

[4] = compound: C1=CC2=C(C=CC(=C2)/C=C\3/C(=O)NC(=NCC4=CC=CS4)S3)N=C1
Procedure, shortened: as §1

[5] = compound: C1=CC2=NC=CN=C2C=C1/C=C/3\C(=O)NC(=O)S3
Procedure, shortened: as §1

[6] = compound: C1=CC=C(C=C1)C2=NC(=C(N2)C3=CC=NC=C3)C4=CC(=C(C=C4)Cl)O
Procedure, shortened: as §1

[7] = compound: C1=CC=C2C(=C1)C3=NNC4=CC=CC(=C43)C2=O
Procedure, shortened: as §1

[8] = compound: C1CCN(C1)C(=O)NC2=CC=CC(=C2)NC3=NC=C(C(=N3)NCCC4=CN=CN4)Br
Procedure, shortened: as §1

[9] = compound: C1CN(CCC1(CC2=CC=C(C=C2)Cl)N)C3=NC=NC4=C3C=CN4
Procedure, shortened: as §1

[10] = compound: C1COCCN1CCN2C3=CC=CC=C3N=C2NC(=O)C4=CC(=CC=C4)[N+](=O)[O-] [IRAK-1-4 Inhibitor I]
Procedure, shortened: as §1

[11] = compound: C=CC(=O)N1CCC[C@@H](n2nc(-c3ccc(Oc4ccccc4)cc3)c3c(N)ncnc32)C1 [ibrutinib]
Procedure, shortened: as §1

[12] = compound: CC(=O)c1cnc2ccc(-c3cc(Cl)c(O)c(Cl)c3)nc2c1N[C@H]1CC[C@H](CN(C)C)CC1
Procedure, shortened: as §1

[13] = compound: CC(C)(C)Cn1c(N)nc2ccc(-c3[nH]c(C(C)(C)C)nc3-c3ccc(F)cc3)nc21 [ralimetinib]
Procedure, shortened: as §1

[14] = compound: CC(C)(O)CC(=O)NCCn1ccc2ncnc(Nc3ccc(Oc4cccc(C(F)(F)F)c4)c(Cl)c3)c21
Procedure, shortened: as §1

[15] = compound: CC(C)C1=C2N=C(C=C(N2N=C1)NCC3=CC=CC=C3)NCCCCCCN
Procedure, shortened: as §1

[16] = compound: CC1=C(C(CC(=O)N1)C2=CC=C(C=C2)C(F)(F)F)C(=O)NC3=C(C=C4C(=C3)C=NN4)F
Procedure, shortened: as §1

[17] = compound: CC1=C(C2=C(C=C1)C(=O)C3=CC=CC=C3N2CCCN)C
Procedure, shortened: as §1

[18] = compound: CC1=C(C=C(C=C1)NC(=O)C2=CC(=CC=C2)C(C)(C)C#N)NC3=CC4=C(C=C3)N=CN(C4=O)C
Procedure, shortened: as §1

[19] = compound: CC1=C(C=C(C=C1)NC(=O)C2=CC(=CC=C2)N(C)C)NC(=O)C3=CC=C(C=C3)O
Procedure, shortened: as §1

[20] = compound: CC1=CC=C(C=C1)SC2=C3C=C(SC3=CN=C2)C(=O)N
Procedure, shortened: as §1

Measured: log2 fold change

TUBD1 (UniProt Q9UJT1)
inactive: [1] -0.019 | [2] 0.046 | [3] 0.148 | [4] 0.012 | [5] 0.117 | [6] -0.123 | [7] -0.017 | [8] -0.065 | [9] -0.013 | [10] 0.061 | [11] 0.185 | [12] -0.128 | [13] -0.048 | [14] -0.044 | [15] -0.116 | [16] 0.045 | [17] -0.084 | [18] -0.077 | [19] 0.066 | [20] 0.155

TXNRD1 (UniProt Q16881)
inactive: [1] -0.005 | [2] -0.024 | [3] 0.009 | [4] -0.026 | [5] 0.012 | [6] -0.003 | [7] 0.009 | [8] 0.024 | [9] 0.004 | [10] 0.001 | [11] 0.015 | [12] -0.007 | [13] -0.002 | [14] -0.019 | [15] -0.013 | [16] -0.023 | [17] 0.005 | [18] 0.003 | [19] -0.019 | [20] -0.019

TUBE1 (UniProt Q9UJT0)
inactive: [1] 0.051 | [2] -0.267 | [3] 0.095 | [4] -0.059 | [5] -0.063 | [6] -0.078 | [7] -0.033 | [8] -0.113 | [9] 0.047 | [10] 0.023 | [11] 0.065 | [12] -0.017 | [13] 0.05 | [14] -0.034 | [15] 0.024 | [16] -0.001 | [17] 0.027 | [18] -0.02 | [19] 0.001 | [20] -0.03

UBR1 (UniProt Q8IWV7)
inactive: [1] 0.01 | [2] 0.058 | [3] -0.055 | [4] -0.002 | [5] 0.026 | [6] 0.015 | [7] -0.016 | [8] -0.047 | [9] 0.008 | [10] 0.002 | [11] 0.007 | [12] 0.005 | [13] 0.015 | [14] -0.044 | [15] -0.014 | [16] -0.011 | [17] 0.004 | [18] -0.004 | [19] -0.03 | [20] -0.008

UBXN4 (UniProt Q92575)
inactive: [1] -0.065 | [2] -0.007 | [3] 0.042 | [4] -0.037 | [5] -0.057 | [6] -0.02 | [7] 0.029 | [8] -0.015 | [9] -0.022 | [10] 0.007 | [11] -0.033 | [12] -0.045 | [13] 0.036 | [14] -0.016 | [15] -0.02 | [16] 0.046 | [17] -0.025 | [18] -0.01 | [19] 0.019 | [20] -0.008

UBL4A (UniProt P11441)
inactive: [1] -0.04 | [2] 0.014 | [3] -0.069 | [4] 0.005 | [5] 0.087 | [6] 0.021 | [7] 0.04 | [8] 0.024 | [9] -0.028 | [10] -0.042 | [11] 0.056 | [12] 0.055 | [13] 0 | [14] 0.049 | [15] 0.009 | [16] -0.023 | [17] -0.02 | [18] -0.044 | [19] -0.002 | [20] 0.025

UBA2 (UniProt Q9UBT2)
inactive: [1] -0.008 | [2] 0.016 | [3] 0.002 | [4] 0.011 | [5] 0.004 | [6] 0.011 | [7] 0.024 | [8] 0.033 | [9] 0.041 | [10] -0.016 | [11] 0.012 | [12] -0.009 | [13] 0.007 | [14] -0.002 | [15] -0.008 | [16] -0.02 | [17] -0.002 | [18] -0.002 | [19] -0.019 | [20] 0.007

2 records drawn at random from the list so far:
UBXN4 (UniProt Q92575)
inactive: [1] -0.065 | [2] -0.007 | [3] 0.042 | [4] -0.037 | [5] -0.057 | [6] -0.02 | [7] 0.029 | [8] -0.015 | [9] -0.022 | [10] 0.007 | [11] -0.033 | [12] -0.045 | [13] 0.036 | [14] -0.016 | [15] -0.02 | [16] 0.046 | [17] -0.025 | [18] -0.01 | [19] 0.019 | [20] -0.008

UBL4A (UniProt P11441)
inactive: [1] -0.04 | [2] 0.014 | [3] -0.069 | [4] 0.005 | [5] 0.087 | [6] 0.021 | [7] 0.04 | [8] 0.024 | [9] -0.028 | [10] -0.042 | [11] 0.056 | [12] 0.055 | [13] 0 | [14] 0.049 | [15] 0.009 | [16] -0.023 | [17] -0.02 | [18] -0.044 | [19] -0.002 | [20] 0.025

Following part.

UBA5 (UniProt Q9GZZ9)
inactive: [1] 0.004 | [2] 0.025 | [3] -0.011 | [4] 0.017 | [5] 0.015 | [6] -0.016 | [7] -0.014 | [8] 0.026 | [9] -0.008 | [10] -0.026 | [11] -0.004 | [12] -0.023 | [13] 0.085 | [14] -0.007 | [15] -0.003 | [16] -0.002 | [17] -0.028 | [18] -0.014 | [19] 0.047 | [20] 0.013

U2AF1 isoform 2 (UniProt Q01081)
inactive: [1] 0.037 | [2] -0.09 | [3] -0.051 | [4] 0.048 | [5] -0.023 | [6] 0.001 | [7] 0.002 | [8] 0.007 | [9] -0.001 | [10] -0.038 | [11] 0.02 | [12] 0.005 | [13] 0.013 | [14] 0.016 | [15] 0.013 | [16] 0.013 | [17] 0.03 | [18] 0.099 | [19] 0.008 | [20] 0.019

UBE2G1 (UniProt P62253)
inactive: [1] -0.035 | [2] 0.009 | [3] 0.052 | [4] -0.011 | [5] 0.016 | [6] 0.016 | [7] 0.007 | [8] 0.009 | [9] -0.013 | [10] 0.005 | [11] -0.002 | [12] 0.035 | [13] -0.011 | [14] 0.013 | [15] -0.006 | [16] 0.008 | [17] -0.011 | [18] 0.011 | [19] -0.023 | [20] 0.002

UBR4 (UniProt Q5T4S7)
inactive: [1] 0 | [2] 0.039 | [3] -0.016 | [4] 0.017 | [5] -0.006 | [6] 0.008 | [7] -0.01 | [8] -0.021 | [9] 0.002 | [10] -0.009 | [11] -0.019 | [12] -0.008 | [13] 0.02 | [14] -0.011 | [15] -0.02 | [16] 0.003 | [17] 0.011 | [18] 0.009 | [19] 0.014 | [20] 0.01

UBE3D (UniProt Q7Z6J8)
inactive: [1] 0.06 | [2] 0.039 | [3] 0.062 | [4] -0.021 | [5] 0.006 | [6] -0.002 | [7] 0.029 | [8] -0.041 | [9] 0.023 | [10] 0.072 | [11] -0.03 | [12] -0.062 | [13] -0.005 | [14] -0.057 | [15] -0.006 | [16] -0.035 | [17] 0.066 | [18] 0.02 | [19] -0.013 | [20] -0.008

UBE2Z (UniProt Q9H832)
inactive: [1] 0.017 | [2] 0.03 | [3] -0.032 | [4] -0.002 | [5] 0.022 | [6] -0.001 | [7] -0.009 | [8] -0.02 | [9] -0.011 | [10] -0.045 | [11] -0.006 | [12] -0.016 | [13] 0.008 | [14] 0.002 | [15] -0.014 | [16] 0.014 | [17] 0.046 | [18] 0.03 | [19] -0.018 | [20] 0.005

UBE2O (UniProt Q9C0C9)
inactive: [1] 0.034 | [2] 0.021 | [3] 0.044 | [4] 0.003 | [5] -0.006 | [6] 0.025 | [7] -0.045 | [8] -0.016 | [9] 0.023 | [10] 0.02 | [11] -0.011 | [12] -0.01 | [13] -0.025 | [14] -0.061 | [15] 0.001 | [16] -0.021 | [17] -0.041 | [18] 0.03 | [19] 0.01 | [20] -0.01

TUSC3 isoform 2 (UniProt Q13454)
inactive: [1] -0.013 | [2] 0.108 | [3] -0.063 | [4] -0.101 | [5] 0 | [6] -0.012 | [7] -0.046 | [8] -0.012 | [9] 0.053 | [10] 0.019 | [11] -0.012 | [12] -0.019 | [13] 0.015 | [14] -0.015 | [15] 0.034 | [16] 0.03 | [17] 0.06 | [18] 0.028 | [19] -0.068 | [20] -0.015

Reference: the supplement of paper PMC10849652
